{"source": "patent US20220378046A1", "about": "“EFFECTS OF NF-kB SIGNALING INHIBITORS ON BED BUG RESISTANCE TO ORALLY PROVISIONED ENTOMOPATHOGENIC BACTERIA” (South Dakota Board of Regents, priority 2021, published 2022)", "test_system": "Cimex lectularius", "test": "Toxicity of NF-kB signaling inhibitors fed as lone agents to bed bugs (seven-day survivorship)", "assay_type": "in vivo", "conditions": "adult bed bugs; inhibitor at 5 μg/mL or 10 μg/mL in blood meal; lone agent", "method": "For the following non-limiting Examples, the Cincinnati SRL strain of Cimex lectularius was used for the population of bed bugs. This strain was derived from a population of individuals collected by technicians from Sierra Research Laboratories, Inc. (Modesto, Calif.) in 2007 and has been maintained under laboratory conditions since this time. Colonies were maintained at the University of South Dakota in plastic jars containing corrugated cardboard harborages at 28 +/−1° C. and 60-70% relative humidity on a 12:12 photoperiod. The colonies were fed aseptically collected defibrinated rabbit blood (Hemostat Laboratories, Dixon, Calif.) once per week using an artificial membrane system (Hemotek Ltd., Blackburn, United Kingdom).\nThe bed bugs were fed four individual small molecule inhibitors of NF-kB signaling (BMS345541, IKK16, IMD0354, Takinib) alone or in combination with two different bacterial entomopathogens (Pseudomonas entomophila and Bacillus thuringiensis israelensis). […] The effects on both bed bug mortality and bacterial growth were assessed.\nThe toxicity of NF-kB signaling inhibitors was analyzed by feeding the inhibitors as lone agents to bed bugs. In particular, the four individual small molecule inhibitors of NF-kB signaling (BMS345541, IKK16, IMD0354, Takinib) were analyzed. […] Mortality was then monitored regularly over a period of seven days. […]", "note": "Some entries share one result that the patent states for a list of compounds.", "data": [{"molecule": "O=C(Nc1cc(C(F)(F)F)cc(C(F)(F)F)c1)c1cc(Cl)ccc1O", "note": "[IMD0354, N-(3,5-bis(trifluoromethyl)phenyl)-5-chloro-2-hydroxybenzamide]", "values": [{"measurement": "survival at 7 days post-feeding", "value": "above 90%"}]}]}
